Measured values from patent US20050109704A1, “Potable water delivery system with disinfection and residual discharge unit and method” (Pure H2O Bio-Technologies, Inc., priority 2003, published 2005).
Several values for one entry are separate records, joined by “and”; a condition that tells them apart may be missing. Equal entries are not always repeated.

Assay: Iodine Concentration, ISE measured in subject treatment systems
Conditions: for Iodine Concentration, Iodine Feeder Unit Sample, Average / Iodine Concentration, Iodine Feeder Unit Sample: before carbon filter units; for Iodine Concentration, Iodine Feeder Unit Sample / Iodine Concentration, Discharge Unit Sample: 90 ml water samples No. 1-3; for Iodine Concentration, Discharge Unit Sample, Average / Iodine Concentration, Discharge Unit Sample: point of discharge
[1] = subject treatment system A, after 6 months of sustained use
[2] = subject treatment system B, after 3 years of sustained use

In the case of II, the “Iodine Concentration, Iodine Feeder Unit Sample, Average” value [1] is reported as 18.2 ppm, the “Iodine Concentration, Iodine Feeder Unit Sample” value [1] is reported as 16.7 ppm and 19.8 ppm and 18.1 ppm and the “Iodine Concentration, Discharge Unit Sample, Average” value [1] is reported as 0.0 ppm. The “Iodine Concentration, Discharge Unit Sample” value [1] was 0.0 ppm, the “Iodine Concentration, Iodine Feeder Unit Sample, Average” value [2] was 15.6 ppm and the “Iodine Concentration, Iodine Feeder Unit Sample” value [2] was 15.7 ppm and 16.9 ppm and 14.1 ppm. The “Iodine Concentration, Discharge Unit Sample, Average” value [2] was 0.0 ppm, the “Iodine Concentration, Discharge Unit Sample” value [2] was 0.0 ppm and the “residual iodine in treated-discharge water” value (subject treatment systems A and B after periods of sustained use) was “below ISE-detectable levels”.
